In paper PMC5081413:
No constants are given. Whether binding was seen depends on the method and setting. For part of these data: In cells and extracts the contact can be indirect. Some binding calls cover weakened binding; strength is not graded here.

Amino acid sequences for entries named in this document (tags omitted). A change or cut given only in a name is not applied to a line headed by its entry.
UniProt P62330, whole entry: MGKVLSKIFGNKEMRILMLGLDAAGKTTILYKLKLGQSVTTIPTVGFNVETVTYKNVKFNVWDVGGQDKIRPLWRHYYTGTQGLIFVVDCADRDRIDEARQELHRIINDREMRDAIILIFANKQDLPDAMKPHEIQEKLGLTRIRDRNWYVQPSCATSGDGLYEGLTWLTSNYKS

Key:
[1] = target: Arf1^QL-I49T (Arf1 Q71L, I49T; switch 1 mutant) (UniProt P84077); experiment: pull-down; both purified
[2] = target: Arf1^QL-Y81H (Arf1 Q71L, Y81H; switch 2 mutant) (UniProt P84077); experiment: pull-down; both purified
[3] = target: Arf1^QL-T45I (Arf1 Q71L, T45I; switch 1 mutant) (UniProt P84077); experiment: pull-down; both purified
[4] = target: Arf1^QL-I74T (Arf1 Q71L, I74T; switch 2 mutant) (UniProt P84077); experiment: pull-down; both purified
[5] = target: Arf1^QL-Y35Q (Arf1 Q71L, Y35Q; alpha-1 helix mutant) (UniProt P84077); experiment: pull-down; both purified
Arf6-Y31Q = Arf6-Y31Q (UniProt P62330); experiment: pull-down
[6] = target: recombinant myristoylated Arf6 activated with GTPγS (UniProt P62330); experiment: pull-down; both purified
[7] = target: constitutively active GTP-bound myristoylated Arf1-Q71L (UniProt P84077); experiment: pull-down; both purified

Substance	binding [1]	binding [2]	binding [3]	binding [4]	binding [5]	binding (Arf6-Y31Q)	binding [6]	binding [7]
EspG wild-type, recombinant (effector domain residues 48-398) (from UniProt Q7DB50 31-381) (domain or fragment)	binds	binds	binds	binds	no binding	binds	–	–
EspGΔ^AΔ^P (EspG I152S, P351A, P355A), recombinant (from UniProt Q7DB50 31-381) (domain or fragment)	–	–	–	–	–	–	no binding	no binding
EspGΔ^R (EspG Q293A), recombinant (from UniProt Q7DB50 31-381) (domain or fragment)	–	–	–	–	–	–	–	binds
